Data from patent publication US20160089371A1, “Combination of Kinase Inhibitors and Uses Thereof” (INTELLIKINE, LLC, priority 2013, published 2016).
For at least one compound, name, drawing or mass did not settle the structure. Some of these results come from one statement about several compounds together.

Assays:
[1] = Steady state blood glucose in tumor-bearing nude mice (Example 41); assay type: in vivo, Mus musculus; conditions: single agent groups (all doses and schedules); 0-2 hrs post dose
NRDG1 phosphorylation = test: Western blot of NRDG1 phosphorylation; assay type: cell-based; conditions: FIG. 5B

Row | SMILES | fold increase in the mean AUC of blood glucose over control levels [1] | sensitivity of mTORC1-dependent NRDG1 phosphorylation (NRDG1 phosphorylation)
1 | Nc1nc2cc(-c3ccc4ncc(C(=O)N5CCOCC5)n4c3)ccc2o1 [Compound A] | 1.02-1.34 fold | 
2 | CO[C@H]1C[C@@H]2CC[C@@H](C)[C@@](O)(O2)C(=O)C(=O)N2CCCC[C@H]2C(=O)O[C@H]([C@H](C)C[C@@H]2CC[C@@H](O)[C@H](OC)C2)CC(=O)[C@H](C)/C=C(\C)[C@@H](O)[C@@H](OC)C(=O)[C@H](C)C[C@H](C)/C=C/C=C/C=C/1C [rapamycin] |  | not
